# Key:
# [1] = system: S.aureus with and without efflux pump; test: Mouse model of infection, 50% protective dose; format: in vivo; conditions: S.aureus with Nor A efflux pump vs without
# [2] = system: S.aureus strain bearing Nor A efflux pump; format: cell-based; conditions: Nor A efflux pump strain vs strain devoid of efflux pump
# Description: Using this set of MIC values, % loss in potency due to efflux was calculated for each of the fluoroquinolone in Table 5
smiles,measurement,setting,value
O=C(O)c1cn(C2CC2)c2cc(N3CCNCC3)c(F)cc2c1=O [Ciprofloxacin],Fold Increase in 50% protective dose,[1],>10 fold
same,% loss in potency for S. aureus bearing Efflux pump,[2],94%
